# Reference: the supplement of paper PMC4604168 (melanoma cell lines)
# The other results are listed elsewhere or left out. Single values are uncertain, as repeats are few or missing.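 Imaging used 1,536-well plates; nuclei positive for cleaved PARP by antibody were divided by total DNA-stained nuclei to yield the apoptosis fraction. Doses for screening kept most cells viable, and cell lines differ markedly in resting and induced cleaved-PARP levels.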
# Test system: IST-MEL1
# Assay: cleaved PARP positive nuclei fraction relative to DMSO control; melanoma cells; higher = more apoptosis
# Details: library dose: low library concentration; 72 h
row,Structure (SMILES),cleaved PARP positive nuclei fraction [%]
1,"CCCS(=O)(=O)Nc1ccc(F)c(C(=O)c2c[nH]c3ncc(Cl)cc23)c1F + COCC[n+]1c2c(n(Cc3cnccn3)c1C)C(=O)c1ccccc1C2=O [YM155] (first compound 0.08 µM, partner dose 0.0004 µM)",46.8
2,"CN1CCN(c2ccc3nc(-c4c(N)c5c(F)cccc5[nH]c4=O)[nH]c3c2)CC1 [Dovitinib] + Cn1c(Nc2ccc(C(F)(F)F)cc2)nc2cc(Oc3ccnc(-c4ncc(C(F)(F)F)[nH]4)c3)ccc21 [CHIR265] (first compound 0.1 µM, partner dose 0.08 µM)",407
3,"Cn1c(=O)n(-c2ccc(C(C)(C)C#N)cc2)c2c3cc(-c4cnc5ccccc5c4)ccc3ncc21 + Cn1nnc2c(C(N)=O)ncn2c1=O [temozolomide] (first compound 0.004 µM, partner dose 2 µM)",72.2
4,"CC(C)C[C@H](NC(=O)[C@H](Cc1ccccc1)NC(=O)c1cnccn1)B(O)O [Bortezomib] + C[C@@H](Oc1cc(-c2cnn(C3CCNCC3)c2)cnc1N)c1c(Cl)ccc(F)c1Cl [Crizotinib] (first compound 0.001 µM, partner dose 0.2 µM)",52.4
5,"O=C(O)[C@@H]1[O][Sb](=[O])([O][Sb]2(=[O])[O][C@H]([C@H](O)CO)[C@H](O)[C@H](C(=O)O)[O]2)[O][C@H]([C@H](O)CO)[C@@H]1O (stereo not given in full) [stibogluconate] + OCc1c[nH]c2ccccc12 [Indole-3-carbinol] (first compound 2 µM, partner dose 0.8 µM)",269
6,"C=C(c1ccc(C(=O)O)cc1)c1cc2c(cc1C)C(C)(C)CCC2(C)C [Bexarotene] + Cn1nnc2c(C(N)=O)ncn2c1=O [temozolomide] (first compound 2 µM, partner dose 2 µM)",63.6
7,"Nc1ncn([C@H]2C[C@H](O)[C@@H](CO)O2)c(=O)n1 [decitabine] + C[C@]1(c2nc3c(C(N)=O)cccc3[nH]2)CCCN1 [Veliparib] (first compound 0.1 µM, partner dose 1.4 µM)",113
8,"CN1CCN(c2ccc3nc(-c4c(N)c5c(F)cccc5[nH]c4=O)[nH]c3c2)CC1 [Dovitinib] + Nc1nc(F)nc2c1ncn2[C@@H]1O[C@H](CO)[C@@H](O)[C@@H]1O [fludarabine] (first compound 0.1 µM, partner dose 0.2 µM)",62.9
9,"CO[C@H]1C[C@@H]2CC[C@@H](C)[C@@](O)(O2)C(=O)C(=O)N2CCCC[C@H]2C(=O)O[C@H]([C@H](C)C[C@@H]2CC[C@@H](OCCO)[C@H](OC)C2)CC(=O)[C@H](C)/C=C(\C)[C@@H](O)[C@@H](OC)C(=O)[C@H](C)C[C@H](C)/C=C/C=C/C=C/1C [everolimus] + Clc1ccc(Nc2nnc(Cc3ccncc3)c3ccccc23)cc1 [vatalanib] (first compound 0.02 µM, partner dose 2 µM)",170
10,"CO[C@H]1C[C@@H]2CC[C@@H](C)[C@@](O)(O2)C(=O)C(=O)N2CCCC[C@H]2C(=O)O[C@H]([C@H](C)C[C@@H]2CC[C@@H](OCCO)[C@H](OC)C2)CC(=O)[C@H](C)/C=C(\C)[C@@H](O)[C@@H](OC)C(=O)[C@H](C)C[C@H](C)/C=C/C=C/C=C/1C [everolimus] + C#Cc1cccc(Nc2ncnc3cc(OCCOC)c(OCCOC)cc23)c1 [erlotinib] (first compound 0.02 µM, partner dose 0.8 µM)",116
11,"CS(=O)(=O)CCNCc1ccc(-c2ccc3ncnc(Nc4ccc(OCc5cccc(F)c5)c(Cl)c4)c3c2)o1 [lapatinib] + OCc1c[nH]c2ccccc12 [Indole-3-carbinol] (first compound 0.8 µM, partner dose 0.8 µM)",92.7
12,"C[C@@H](Oc1cc(-c2cnn(C3CCNCC3)c2)cnc1N)c1c(Cl)ccc(F)c1Cl [Crizotinib] + Nc1ccn([C@@H]2O[C@H](CO)[C@@H](O)C2(F)F)c(=O)n1 [gemcitabine] (first compound 0.2 µM, partner dose 0.0004 µM)",162
13,"O=C(O)[C@@H]1[O][Sb](=[O])([O][Sb]2(=[O])[O][C@H]([C@H](O)CO)[C@H](O)[C@H](C(=O)O)[O]2)[O][C@H]([C@H](O)CO)[C@@H]1O (stereo not given in full) [stibogluconate] + COc1ccc(Cl)c(Nc2nc3ccccc3nc2NS(=O)(=O)c2cccc(NC(=O)C(C)(C)N)c2)c1 [XL147] (first compound 2 µM, partner dose 0.8 µM)",105
14,"Cc1cc(Nc2cc(N3CCN(C)CC3)nc(/C=C/c3ccccc3)n2)n[nH]1 + C#Cc1cccc(Nc2ncnc3cc(OCCOC)c(OCCOC)cc23)c1 [erlotinib] (first compound 0.04 µM, partner dose 0.8 µM)",172
15,"Nc1ccn([C@@H]2O[C@H](CO)[C@@H](O)C2(F)F)c(=O)n1 [gemcitabine] + COc1ccc(Cl)c(Nc2nc3ccccc3nc2NS(=O)(=O)c2cccc(NC(=O)C(C)(C)N)c2)c1 [XL147] (first compound 0.0004 µM, partner dose 0.8 µM)",126
16,"Cc1cc(Nc2cc(N3CCN(C)CC3)nc(/C=C/c3ccccc3)n2)n[nH]1 + CNC(=O)c1cc(Oc2ccc(NC(=O)Nc3ccc(Cl)c(C(F)(F)F)c3)cc2)ccn1 [sorafenib] (first compound 0.04 µM, partner dose 0.4 µM)",124
17,"O=C(O)c1ccc2c(c1)nc(Nc1cccc(Cl)c1)c1ccncc12 + Nc1nc(F)nc2c1ncn2[C@@H]1O[C@H](CO)[C@@H](O)[C@@H]1O [fludarabine] (first compound 0.4 µM, partner dose 0.2 µM)",261
18,"O=C(O)c1ccc2c(c1)nc(Nc1cccc(Cl)c1)c1ccncc12 + Nc1cccc2c1CN(C1CCC(=O)NC1=O)C2=O [lenalidomide] (first compound 0.4 µM, partner dose 1 µM)",59.2
19,"Nc1ncn([C@H]2C[C@H](O)[C@@H](CO)O2)c(=O)n1 [decitabine] + OCc1c[nH]c2ccccc12 [Indole-3-carbinol] (first compound 0.1 µM, partner dose 0.8 µM)",150
20,"CC(C)C[C@H](NC(=O)[C@H](Cc1ccccc1)NC(=O)c1cnccn1)B(O)O [Bortezomib] + Cn1c(Nc2ccc(C(F)(F)F)cc2)nc2cc(Oc3ccnc(-c4ncc(C(F)(F)F)[nH]4)c3)ccc21 [CHIR265] (first compound 0.001 µM, partner dose 0.08 µM)",82.7
21,"Cn1c(=O)n(-c2ccc(C(C)(C)C#N)cc2)c2c3cc(-c4cnc5ccccc5c4)ccc3ncc21 + C[C@]1(c2nc3c(C(N)=O)cccc3[nH]2)CCCN1 [Veliparib] (first compound 0.004 µM, partner dose 1.4 µM)",214
22,"CS(=O)(=O)CCNCc1ccc(-c2ccc3ncnc(Nc4ccc(OCc5cccc(F)c5)c(Cl)c4)c3c2)o1 [lapatinib] + COCC[n+]1c2c(n(Cc3cnccn3)c1C)C(=O)c1ccccc1C2=O [YM155] (first compound 0.8 µM, partner dose 0.0004 µM)",76.9
23,"CCCS(=O)(=O)Nc1ccc(F)c(C(=O)c2c[nH]c3ncc(Cl)cc23)c1F + Nc1nc(F)nc2c1ncn2[C@@H]1O[C@H](CO)[C@@H](O)[C@@H]1O [fludarabine] (first compound 0.08 µM, partner dose 0.2 µM)",64.8
24,"Cc1cc(Nc2cc(N3CCN(C)CC3)nc(/C=C/c3ccccc3)n2)n[nH]1 + CO[C@H]1C[C@@H]2CC[C@@H](C)[C@@](O)(O2)C(=O)C(=O)N2CCCC[C@H]2C(=O)O[C@H]([C@H](C)C[C@@H]2CC[C@@H](OCCO)[C@H](OC)C2)CC(=O)[C@H](C)/C=C(\C)[C@@H](O)[C@@H](OC)C(=O)[C@H](C)C[C@H](C)/C=C/C=C/C=C/1C [everolimus] (first compound 0.04 µM, partner dose 0.02 µM)",111
25,"CCCS(=O)(=O)Nc1ccc(F)c(C(=O)c2c[nH]c3ncc(Cl)cc23)c1F + Nc1ncn([C@H]2C[C@H](O)[C@@H](CO)O2)c(=O)n1 [decitabine] (first compound 0.08 µM, partner dose 0.1 µM)",70.7

# As a working copy, some entries already given.
row,Structure (SMILES),cleaved PARP positive nuclei fraction [%]
5,"O=C(O)[C@@H]1[O][Sb](=[O])([O][Sb]2(=[O])[O][C@H]([C@H](O)CO)[C@H](O)[C@H](C(=O)O)[O]2)[O][C@H]([C@H](O)CO)[C@@H]1O (stereo not given in full) [stibogluconate] + OCc1c[nH]c2ccccc12 [Indole-3-carbinol] (first compound 2 µM, partner dose 0.8 µM)",269
6,"C=C(c1ccc(C(=O)O)cc1)c1cc2c(cc1C)C(C)(C)CCC2(C)C [Bexarotene] + Cn1nnc2c(C(N)=O)ncn2c1=O [temozolomide] (first compound 2 µM, partner dose 2 µM)",63.6
7,"Nc1ncn([C@H]2C[C@H](O)[C@@H](CO)O2)c(=O)n1 [decitabine] + C[C@]1(c2nc3c(C(N)=O)cccc3[nH]2)CCCN1 [Veliparib] (first compound 0.1 µM, partner dose 1.4 µM)",113
8,"CN1CCN(c2ccc3nc(-c4c(N)c5c(F)cccc5[nH]c4=O)[nH]c3c2)CC1 [Dovitinib] + Nc1nc(F)nc2c1ncn2[C@@H]1O[C@H](CO)[C@@H](O)[C@@H]1O [fludarabine] (first compound 0.1 µM, partner dose 0.2 µM)",62.9
9,"CO[C@H]1C[C@@H]2CC[C@@H](C)[C@@](O)(O2)C(=O)C(=O)N2CCCC[C@H]2C(=O)O[C@H]([C@H](C)C[C@@H]2CC[C@@H](OCCO)[C@H](OC)C2)CC(=O)[C@H](C)/C=C(\C)[C@@H](O)[C@@H](OC)C(=O)[C@H](C)C[C@H](C)/C=C/C=C/C=C/1C [everolimus] + Clc1ccc(Nc2nnc(Cc3ccncc3)c3ccccc23)cc1 [vatalanib] (first compound 0.02 µM, partner dose 2 µM)",170
